Measurements from article PMC12696101.
Results are given in words; binding and its absence hold for the method and conditions named. In cells and extracts the contact can be indirect. Some binding calls cover weakened binding; strength is not graded here. For part of these data: Where a sequence is shown, tags or fusion partners need not be part of it. Each block holds one substance with its values, some of them ahead of it.

The chains behind the UniProt entries cited, without tags or fusion partners. Residues count along the entry.
UniProt P43220, residues 24-463: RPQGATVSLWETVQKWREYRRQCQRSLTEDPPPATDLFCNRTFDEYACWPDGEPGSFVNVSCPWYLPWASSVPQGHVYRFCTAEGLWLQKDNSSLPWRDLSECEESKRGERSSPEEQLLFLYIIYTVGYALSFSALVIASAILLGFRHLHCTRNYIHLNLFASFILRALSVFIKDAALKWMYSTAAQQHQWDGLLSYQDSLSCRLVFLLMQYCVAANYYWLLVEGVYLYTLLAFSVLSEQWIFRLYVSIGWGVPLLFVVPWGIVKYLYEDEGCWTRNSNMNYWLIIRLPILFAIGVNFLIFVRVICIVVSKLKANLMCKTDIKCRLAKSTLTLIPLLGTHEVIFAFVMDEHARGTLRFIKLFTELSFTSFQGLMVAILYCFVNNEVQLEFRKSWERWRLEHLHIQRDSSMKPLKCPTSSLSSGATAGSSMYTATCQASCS
UniProt O35659, residues 22-463: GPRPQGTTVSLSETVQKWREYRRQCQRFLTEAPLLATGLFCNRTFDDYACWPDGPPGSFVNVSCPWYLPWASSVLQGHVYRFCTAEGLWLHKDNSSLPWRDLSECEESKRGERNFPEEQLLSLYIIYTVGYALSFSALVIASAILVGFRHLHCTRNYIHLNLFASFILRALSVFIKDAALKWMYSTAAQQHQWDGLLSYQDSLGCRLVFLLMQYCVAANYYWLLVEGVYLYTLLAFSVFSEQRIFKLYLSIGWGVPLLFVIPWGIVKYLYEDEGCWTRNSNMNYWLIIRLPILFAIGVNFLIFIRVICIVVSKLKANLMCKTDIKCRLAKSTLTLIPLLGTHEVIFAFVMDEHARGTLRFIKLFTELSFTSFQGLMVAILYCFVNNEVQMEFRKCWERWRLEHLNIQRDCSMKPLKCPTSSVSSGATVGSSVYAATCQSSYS
UniProt O95292: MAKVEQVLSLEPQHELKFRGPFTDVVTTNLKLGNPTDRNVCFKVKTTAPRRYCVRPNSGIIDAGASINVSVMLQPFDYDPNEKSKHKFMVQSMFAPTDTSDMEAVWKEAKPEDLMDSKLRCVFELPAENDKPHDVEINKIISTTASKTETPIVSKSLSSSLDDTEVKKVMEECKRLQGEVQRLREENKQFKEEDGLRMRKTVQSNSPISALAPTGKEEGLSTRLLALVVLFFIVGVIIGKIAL
UniProt Q9Z269: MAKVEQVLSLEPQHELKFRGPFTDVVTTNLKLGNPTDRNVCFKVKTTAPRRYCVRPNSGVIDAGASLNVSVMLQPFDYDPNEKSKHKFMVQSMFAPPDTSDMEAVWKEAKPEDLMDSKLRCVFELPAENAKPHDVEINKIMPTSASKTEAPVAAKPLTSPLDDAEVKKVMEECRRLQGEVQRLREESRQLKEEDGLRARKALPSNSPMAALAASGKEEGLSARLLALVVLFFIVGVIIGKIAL
UniProt Q9QY76: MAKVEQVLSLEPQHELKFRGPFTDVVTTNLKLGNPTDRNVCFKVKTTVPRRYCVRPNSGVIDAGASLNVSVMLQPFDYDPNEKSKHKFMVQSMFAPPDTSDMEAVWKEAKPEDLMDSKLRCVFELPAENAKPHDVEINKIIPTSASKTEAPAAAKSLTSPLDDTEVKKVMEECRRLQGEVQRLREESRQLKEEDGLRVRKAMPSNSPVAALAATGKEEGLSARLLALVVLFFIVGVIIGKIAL
UniProt P0C6C0: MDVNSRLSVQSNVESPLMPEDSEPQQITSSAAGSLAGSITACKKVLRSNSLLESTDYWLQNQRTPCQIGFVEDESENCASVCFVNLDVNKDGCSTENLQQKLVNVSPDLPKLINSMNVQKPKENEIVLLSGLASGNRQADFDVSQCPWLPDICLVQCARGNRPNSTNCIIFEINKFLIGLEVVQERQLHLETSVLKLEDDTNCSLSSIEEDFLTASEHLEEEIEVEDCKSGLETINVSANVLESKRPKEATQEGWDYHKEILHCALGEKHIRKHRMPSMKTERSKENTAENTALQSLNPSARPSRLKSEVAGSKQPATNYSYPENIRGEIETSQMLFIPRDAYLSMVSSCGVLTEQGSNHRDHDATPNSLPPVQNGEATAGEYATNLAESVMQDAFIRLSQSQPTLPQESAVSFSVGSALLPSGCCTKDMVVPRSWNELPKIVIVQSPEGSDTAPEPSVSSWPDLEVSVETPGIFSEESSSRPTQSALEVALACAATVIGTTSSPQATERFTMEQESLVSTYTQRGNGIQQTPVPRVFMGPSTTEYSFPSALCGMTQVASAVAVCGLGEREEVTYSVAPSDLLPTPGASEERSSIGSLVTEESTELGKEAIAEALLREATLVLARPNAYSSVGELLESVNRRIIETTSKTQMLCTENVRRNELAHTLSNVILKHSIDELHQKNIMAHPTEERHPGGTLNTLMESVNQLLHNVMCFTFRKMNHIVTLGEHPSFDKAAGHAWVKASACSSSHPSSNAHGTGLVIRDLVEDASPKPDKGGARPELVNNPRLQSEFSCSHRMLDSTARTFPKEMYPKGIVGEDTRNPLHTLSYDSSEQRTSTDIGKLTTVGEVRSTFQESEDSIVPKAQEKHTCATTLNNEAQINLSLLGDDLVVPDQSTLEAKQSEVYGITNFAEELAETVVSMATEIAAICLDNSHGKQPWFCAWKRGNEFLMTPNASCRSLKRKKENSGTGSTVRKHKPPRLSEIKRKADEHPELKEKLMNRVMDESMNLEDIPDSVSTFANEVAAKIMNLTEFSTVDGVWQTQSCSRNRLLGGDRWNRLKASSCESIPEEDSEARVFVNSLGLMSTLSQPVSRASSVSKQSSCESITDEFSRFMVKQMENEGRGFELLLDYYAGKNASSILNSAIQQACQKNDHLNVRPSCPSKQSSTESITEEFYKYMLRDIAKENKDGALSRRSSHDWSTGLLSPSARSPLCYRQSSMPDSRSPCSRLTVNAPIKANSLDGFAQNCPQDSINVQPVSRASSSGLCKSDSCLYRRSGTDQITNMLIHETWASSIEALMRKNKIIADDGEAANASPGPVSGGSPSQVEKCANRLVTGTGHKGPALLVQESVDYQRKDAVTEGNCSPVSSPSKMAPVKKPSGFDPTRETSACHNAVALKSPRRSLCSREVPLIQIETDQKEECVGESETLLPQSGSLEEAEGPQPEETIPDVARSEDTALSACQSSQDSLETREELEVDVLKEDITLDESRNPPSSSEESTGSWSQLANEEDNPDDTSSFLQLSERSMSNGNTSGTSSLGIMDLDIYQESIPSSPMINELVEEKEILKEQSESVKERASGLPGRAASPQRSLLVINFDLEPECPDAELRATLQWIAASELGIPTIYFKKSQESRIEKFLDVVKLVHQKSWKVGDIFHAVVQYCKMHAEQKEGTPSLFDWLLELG

Tests used:
[1] = target: SNAP/FLAG-tagged human GLP-1R (human) (UniProt P43220); assay: co-IP; anti-FLAG M2 magnetic beads, 1 hour at 4 °C, on lysates of INS-1 832/3 SNAP/FLAG-hGLP-1R or SNAP/FLAG-hGIPR cells treated with vehicle, 100 nM exendin-4 for 5 minutes (also a panel of GLP-1RAs; also with dominant negative dynamin 1/2 K44A) or 100 nM GIP; western blot
[2] = target: SNAP/FLAG-hGLP-1R-NLuc (human) (UniProt P43220); assay: FRET or BRET; NanoBRET in living INS-1 832/3 cells co-transfected with Venus-VAPB and GLP-1R-NanoLuc; 37 °C; 1 µM exendin-4 or exendin-F1, read for 30 minutes; ratio 535/460 nm, vehicle-subtracted
[3] = target: T1, SNAP/FLAG-tagged human GIPR (human) (UniProt P48546); assay: co-IP; anti-FLAG M2 magnetic beads, 1 hour at 4 °C, on lysates of INS-1 832/3 SNAP/FLAG-hGLP-1R or SNAP/FLAG-hGIPR cells treated with vehicle, 100 nM exendin-4 for 5 minutes (also a panel of GLP-1RAs; also with dominant negative dynamin 1/2 K44A) or 100 nM GIP; western blot
T1 sequence: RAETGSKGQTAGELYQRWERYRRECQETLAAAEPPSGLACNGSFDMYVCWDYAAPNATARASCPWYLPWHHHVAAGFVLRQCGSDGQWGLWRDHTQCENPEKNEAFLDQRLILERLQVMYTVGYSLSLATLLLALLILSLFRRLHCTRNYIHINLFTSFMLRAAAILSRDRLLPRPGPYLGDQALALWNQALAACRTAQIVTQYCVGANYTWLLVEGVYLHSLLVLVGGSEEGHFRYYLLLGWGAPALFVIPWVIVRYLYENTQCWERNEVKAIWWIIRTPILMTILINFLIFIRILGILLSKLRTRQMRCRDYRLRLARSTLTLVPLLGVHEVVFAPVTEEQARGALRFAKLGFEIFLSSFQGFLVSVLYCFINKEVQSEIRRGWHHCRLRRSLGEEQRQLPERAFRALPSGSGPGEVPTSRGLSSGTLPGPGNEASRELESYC

[4] = target: endogenous GLP-1R (human islets) (human (endogenous in primary islets)) (UniProt P43220); assay: proximity ligation; NaveniFlex Tissue MR Red kit on fixed mouse or human islets stimulated with vehicle or 100 nM exendin-4 for 10 minutes at 37 °C; antibody pairs against endogenous GLP-1R and VAPB or SPHKAP
[5] = target: endogenous GLP-1R (mouse islets) (mouse (endogenous in primary islets)) (UniProt O35659); assay: as above

binding [1]: binds
Substance: EGFP-VAPB (from UniProt O95292 1-243)

binding [1]: binds
Substance: endogenous VAPB (INS-1 832/3 cells) (from UniProt Q9Z269 1-243)

binding [5]: binds
Substance: endogenous VAPB (mouse islets) (from UniProt Q9QY76 1-243)

Second part, the substance before the results:

Substance: Venus-VAPB (from UniProt O95292 1-243)
binding [2]: binds

Substance: endogenous SPHKAP (INS-1 832/3 cells) (from UniProt P0C6C0 1-1683)
binding [3]: binds

Substance: endogenous VAPB (human islets) (from UniProt O95292 1-243)
binding [4]: binds
